Data from US20230090446A1, “ANTISENSE OLIGONUCLEOTIDE TARGETING LINC00518 FOR TREATING MELANOMA” (UNIVERSITE DE STRASBOURG, priority 2020, published 2023).
Read-outs that look alike come from different tables or passages of the source. At least one compound was matched to its structure with a doubt left.

How the values were obtained:
[1] = test system: 501me1 melanoma cells; assay: Melanosphere formation assay; type: cell-based, human; conditions: control GFP-expressing cells
[2] = test system: LINC00518; conditions: cited from earlier work
[3] = test system: 501me1 and A375 cells; assay: Mitotracker live imaging of mitochondria by confocal microscopy; type: cell-based, human; conditions: Vemurafenib (1 uM)
[4] = test system: LINC00518; assay: LINC00518 expression by RT-qPCR in cells treated with MAPK pathway inhibitors
[5] = test system: LINC00518; assay: LINC00518 in cytoplasmic and mitochondrial RNA fractions by qPCR; type: cell-based, human; conditions: A375 cells, 6 days
[6] = test system: 501Mel cells; assay: Oxygen consumption rate (OCR), Agilent Seahorse; type: cell-based, human; conditions: 6 days, compared to DMSO control
[7] = 501Mel and A375 cells, between 12-72 hours after treatment

CCCS(=O)(=O)Nc1ccc(F)c(C(=O)c2c[nH]c3ncc(-c4ccc(Cl)cc4)cc23)c1F [Vemurafenib]
melanosphere formation [1]: inhibition of melanosphere formation
LINC00518 expression ([2]; public data sets, M229 melanoma cells, 3 days after exposure): up-regulated
LINC00518 expression ([2]; public datasets of melanoma cells, by 3 days, acute phase of the response): strongly up regulated
mitochondrial morphology [3]: predominantly elongated mitochondria
LINC00518 expression [4, 7]: up-regulation
LINC00518 expression ([4]; 501Mel cells): induced from 12 hours to 6 days after treatment
LINC00518 localisation [5]: accumulated in the mitochondrial fraction
basal, reserve and maximal OCR [6]: increased

CC(=O)Nc1cccc(-n2c(=O)n(C3CC3)c(=O)c3c(Nc4ccc(I)cc4F)n(C)c(=O)c(C)c32)c1 [Trametinib]
LINC00518 expression [4, 7]: up-regulation
